The values that follow come from PMC4332150.

Protein sequences, listed by entry. Tags and fused reporters are not part of them.
UniProt P16220: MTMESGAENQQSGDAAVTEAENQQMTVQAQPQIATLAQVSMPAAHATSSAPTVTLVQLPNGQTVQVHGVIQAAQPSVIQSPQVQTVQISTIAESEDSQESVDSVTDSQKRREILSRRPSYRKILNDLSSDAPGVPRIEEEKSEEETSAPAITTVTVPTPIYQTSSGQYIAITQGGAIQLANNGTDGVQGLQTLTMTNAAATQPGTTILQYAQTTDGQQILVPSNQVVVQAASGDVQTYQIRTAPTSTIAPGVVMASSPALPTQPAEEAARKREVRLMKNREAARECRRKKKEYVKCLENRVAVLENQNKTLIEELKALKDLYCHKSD

The target of assay [1] is T1, NFATC2 as bait of the reciprocal TAP/MS (UniProt Q13469).
T1 sequence: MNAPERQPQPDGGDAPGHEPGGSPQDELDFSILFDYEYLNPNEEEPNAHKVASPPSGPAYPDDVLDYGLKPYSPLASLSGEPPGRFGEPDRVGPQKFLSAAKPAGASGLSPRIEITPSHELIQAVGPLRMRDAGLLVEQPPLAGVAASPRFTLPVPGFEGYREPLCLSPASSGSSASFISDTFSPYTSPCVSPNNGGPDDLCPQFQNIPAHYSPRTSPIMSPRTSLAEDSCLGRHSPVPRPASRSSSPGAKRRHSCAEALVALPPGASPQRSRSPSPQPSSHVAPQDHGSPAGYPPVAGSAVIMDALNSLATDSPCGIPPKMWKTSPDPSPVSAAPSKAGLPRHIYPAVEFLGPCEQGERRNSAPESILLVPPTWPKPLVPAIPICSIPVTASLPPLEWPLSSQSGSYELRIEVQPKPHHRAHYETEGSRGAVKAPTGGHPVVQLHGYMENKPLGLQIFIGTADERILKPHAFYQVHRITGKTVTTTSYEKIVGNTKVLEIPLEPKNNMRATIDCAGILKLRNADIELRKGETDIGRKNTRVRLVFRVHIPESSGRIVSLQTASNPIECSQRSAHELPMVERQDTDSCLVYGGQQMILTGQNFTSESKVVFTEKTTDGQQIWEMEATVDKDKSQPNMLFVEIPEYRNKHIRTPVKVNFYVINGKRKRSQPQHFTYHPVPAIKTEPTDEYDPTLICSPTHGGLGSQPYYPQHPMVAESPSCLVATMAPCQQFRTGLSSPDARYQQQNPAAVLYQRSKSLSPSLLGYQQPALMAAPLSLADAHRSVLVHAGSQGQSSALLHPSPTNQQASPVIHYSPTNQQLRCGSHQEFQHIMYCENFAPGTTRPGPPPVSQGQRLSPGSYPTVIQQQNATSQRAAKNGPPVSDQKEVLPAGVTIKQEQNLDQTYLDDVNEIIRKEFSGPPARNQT
The assay can be described thus: affinity purification with mass spectrometry; TAP (streptavidin beads, biotin elution, S-protein beads; NETN buffer) of C-terminally SFB-tagged bait from HEK293T; soluble fraction (supernatant of the NETN lysate); forward and reciprocal purifications.

The target in assay [2] is T2, SFB-tagged ATF1 (UniProt P18846).
T2 sequence: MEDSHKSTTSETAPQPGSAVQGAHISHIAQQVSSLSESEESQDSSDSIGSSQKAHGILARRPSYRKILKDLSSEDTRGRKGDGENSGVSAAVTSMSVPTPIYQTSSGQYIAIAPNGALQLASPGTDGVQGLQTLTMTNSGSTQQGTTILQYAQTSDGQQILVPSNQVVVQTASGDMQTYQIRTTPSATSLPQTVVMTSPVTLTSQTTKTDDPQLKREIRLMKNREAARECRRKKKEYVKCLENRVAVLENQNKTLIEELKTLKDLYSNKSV
The description is as above.

In assay [3] the target is T3, SFB-tagged NFATC1 (human) (UniProt O95644).
T3 sequence: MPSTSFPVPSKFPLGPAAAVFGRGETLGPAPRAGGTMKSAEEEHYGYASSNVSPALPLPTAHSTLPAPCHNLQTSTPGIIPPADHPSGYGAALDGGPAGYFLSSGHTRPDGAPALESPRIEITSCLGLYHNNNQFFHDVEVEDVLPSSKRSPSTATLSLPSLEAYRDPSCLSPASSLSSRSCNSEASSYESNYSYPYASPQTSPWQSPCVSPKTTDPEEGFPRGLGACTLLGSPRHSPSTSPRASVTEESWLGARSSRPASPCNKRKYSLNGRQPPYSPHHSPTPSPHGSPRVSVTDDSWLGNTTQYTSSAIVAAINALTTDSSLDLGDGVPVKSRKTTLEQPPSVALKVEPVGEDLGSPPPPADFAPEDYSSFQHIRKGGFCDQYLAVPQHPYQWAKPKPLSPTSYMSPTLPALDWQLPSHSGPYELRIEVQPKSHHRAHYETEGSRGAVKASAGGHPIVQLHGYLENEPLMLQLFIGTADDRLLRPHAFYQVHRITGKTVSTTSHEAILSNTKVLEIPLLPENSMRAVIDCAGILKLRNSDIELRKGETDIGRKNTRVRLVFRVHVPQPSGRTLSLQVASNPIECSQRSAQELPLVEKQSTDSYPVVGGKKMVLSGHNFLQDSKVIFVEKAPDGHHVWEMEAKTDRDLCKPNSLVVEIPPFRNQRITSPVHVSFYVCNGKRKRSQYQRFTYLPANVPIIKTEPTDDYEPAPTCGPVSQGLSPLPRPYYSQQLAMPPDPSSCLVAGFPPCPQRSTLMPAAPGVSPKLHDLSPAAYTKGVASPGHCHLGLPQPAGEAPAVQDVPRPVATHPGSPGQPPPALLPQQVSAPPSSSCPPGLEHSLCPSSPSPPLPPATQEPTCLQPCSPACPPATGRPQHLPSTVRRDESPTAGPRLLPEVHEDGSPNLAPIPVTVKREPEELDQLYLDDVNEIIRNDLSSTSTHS
The assay is described as above.

Assay [4] has as its target T1, NFATC2 as bait of the reciprocal TAP/MS. The assay can be described thus: affinity purification with mass spectrometry; TAP (streptavidin beads, biotin elution, S-protein beads; NETN buffer) of C-terminally SFB-tagged bait from HEK293T; chromatin fraction (pellet after NETN lysis, digested with TurboNuclease); forward and reciprocal purifications; some baits also after drug treatment.

In assay [5] the target is T2, SFB-tagged ATF1. The description is as above.
Assay [6] concerns the target T3, SFB-tagged NFATC1 (human). Described as above.

Results are given in words; binding and its absence hold for the method and conditions named. In cells and extracts the contact can be indirect. A yes stands for co-enrichment or nearness to the bait. Other partners may have been found. For part of these data: No binding means not detected with the bait. For part of these data: Sequences can lack the tags named with a protein.

Regarding “CREB1 (endogenous) (from UniProt P16220 1-327)”, the binding result is reported as “no binding (only in the soluble fraction)” in assay [1]; “binds” in assay [2]; “no binding (only in the soluble fraction)” in assay [3]; “binds” in assay [4]; “binds” in assay [5]; “binds” in assay [6].
